# Experimental data taken from publication doi:10.1101/2021.11.02.467017.
# Chains of the proteins cited; added tags and fusions are not shown.
# UniProt Q9JI44: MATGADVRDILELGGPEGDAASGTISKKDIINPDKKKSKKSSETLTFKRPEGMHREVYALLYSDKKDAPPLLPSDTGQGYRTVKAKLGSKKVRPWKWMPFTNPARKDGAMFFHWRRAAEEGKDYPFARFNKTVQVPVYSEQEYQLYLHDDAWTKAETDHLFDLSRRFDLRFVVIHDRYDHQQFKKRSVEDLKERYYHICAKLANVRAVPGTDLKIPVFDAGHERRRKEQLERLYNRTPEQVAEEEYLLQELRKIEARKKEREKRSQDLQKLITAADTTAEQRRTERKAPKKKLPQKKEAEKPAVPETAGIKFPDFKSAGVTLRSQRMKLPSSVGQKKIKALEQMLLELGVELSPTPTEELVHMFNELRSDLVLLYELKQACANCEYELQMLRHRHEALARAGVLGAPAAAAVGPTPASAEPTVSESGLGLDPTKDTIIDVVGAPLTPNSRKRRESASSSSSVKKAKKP
# UniProt Q8C9X6: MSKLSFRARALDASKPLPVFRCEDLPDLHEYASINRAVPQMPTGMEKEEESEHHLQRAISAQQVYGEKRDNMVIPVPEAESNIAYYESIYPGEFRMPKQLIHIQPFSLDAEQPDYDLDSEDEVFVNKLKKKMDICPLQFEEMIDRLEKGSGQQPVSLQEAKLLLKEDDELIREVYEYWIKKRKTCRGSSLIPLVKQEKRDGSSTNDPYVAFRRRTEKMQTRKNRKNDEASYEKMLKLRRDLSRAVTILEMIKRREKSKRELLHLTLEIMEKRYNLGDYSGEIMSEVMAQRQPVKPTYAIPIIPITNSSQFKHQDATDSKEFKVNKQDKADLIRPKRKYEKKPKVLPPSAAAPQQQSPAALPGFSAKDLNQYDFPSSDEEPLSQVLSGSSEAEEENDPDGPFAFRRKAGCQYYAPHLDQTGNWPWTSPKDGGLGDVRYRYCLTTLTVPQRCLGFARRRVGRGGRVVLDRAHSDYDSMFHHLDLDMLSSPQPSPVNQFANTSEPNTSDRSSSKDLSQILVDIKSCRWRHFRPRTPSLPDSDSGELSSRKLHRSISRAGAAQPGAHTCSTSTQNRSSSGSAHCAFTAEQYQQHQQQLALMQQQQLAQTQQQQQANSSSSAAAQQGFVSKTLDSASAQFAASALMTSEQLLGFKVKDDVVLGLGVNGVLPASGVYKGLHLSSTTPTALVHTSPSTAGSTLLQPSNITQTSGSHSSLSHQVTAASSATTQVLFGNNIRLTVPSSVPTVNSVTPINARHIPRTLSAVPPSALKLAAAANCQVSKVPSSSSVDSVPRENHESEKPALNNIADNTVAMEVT
# UniProt O35144: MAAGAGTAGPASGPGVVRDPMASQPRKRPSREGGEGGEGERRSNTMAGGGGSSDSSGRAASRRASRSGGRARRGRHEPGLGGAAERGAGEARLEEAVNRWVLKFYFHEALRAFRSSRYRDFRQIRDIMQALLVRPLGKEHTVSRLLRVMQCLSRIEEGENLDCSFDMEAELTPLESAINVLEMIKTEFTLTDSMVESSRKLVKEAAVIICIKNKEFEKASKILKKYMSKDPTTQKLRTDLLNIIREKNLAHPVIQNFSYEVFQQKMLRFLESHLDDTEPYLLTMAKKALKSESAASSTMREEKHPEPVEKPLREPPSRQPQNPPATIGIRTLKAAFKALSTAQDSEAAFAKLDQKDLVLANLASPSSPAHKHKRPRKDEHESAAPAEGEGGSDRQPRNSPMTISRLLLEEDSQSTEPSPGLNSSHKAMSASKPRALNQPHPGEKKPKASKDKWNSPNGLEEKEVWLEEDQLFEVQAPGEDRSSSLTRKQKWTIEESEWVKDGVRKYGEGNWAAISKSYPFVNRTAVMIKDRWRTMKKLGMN
# UniProt Q8CHI8: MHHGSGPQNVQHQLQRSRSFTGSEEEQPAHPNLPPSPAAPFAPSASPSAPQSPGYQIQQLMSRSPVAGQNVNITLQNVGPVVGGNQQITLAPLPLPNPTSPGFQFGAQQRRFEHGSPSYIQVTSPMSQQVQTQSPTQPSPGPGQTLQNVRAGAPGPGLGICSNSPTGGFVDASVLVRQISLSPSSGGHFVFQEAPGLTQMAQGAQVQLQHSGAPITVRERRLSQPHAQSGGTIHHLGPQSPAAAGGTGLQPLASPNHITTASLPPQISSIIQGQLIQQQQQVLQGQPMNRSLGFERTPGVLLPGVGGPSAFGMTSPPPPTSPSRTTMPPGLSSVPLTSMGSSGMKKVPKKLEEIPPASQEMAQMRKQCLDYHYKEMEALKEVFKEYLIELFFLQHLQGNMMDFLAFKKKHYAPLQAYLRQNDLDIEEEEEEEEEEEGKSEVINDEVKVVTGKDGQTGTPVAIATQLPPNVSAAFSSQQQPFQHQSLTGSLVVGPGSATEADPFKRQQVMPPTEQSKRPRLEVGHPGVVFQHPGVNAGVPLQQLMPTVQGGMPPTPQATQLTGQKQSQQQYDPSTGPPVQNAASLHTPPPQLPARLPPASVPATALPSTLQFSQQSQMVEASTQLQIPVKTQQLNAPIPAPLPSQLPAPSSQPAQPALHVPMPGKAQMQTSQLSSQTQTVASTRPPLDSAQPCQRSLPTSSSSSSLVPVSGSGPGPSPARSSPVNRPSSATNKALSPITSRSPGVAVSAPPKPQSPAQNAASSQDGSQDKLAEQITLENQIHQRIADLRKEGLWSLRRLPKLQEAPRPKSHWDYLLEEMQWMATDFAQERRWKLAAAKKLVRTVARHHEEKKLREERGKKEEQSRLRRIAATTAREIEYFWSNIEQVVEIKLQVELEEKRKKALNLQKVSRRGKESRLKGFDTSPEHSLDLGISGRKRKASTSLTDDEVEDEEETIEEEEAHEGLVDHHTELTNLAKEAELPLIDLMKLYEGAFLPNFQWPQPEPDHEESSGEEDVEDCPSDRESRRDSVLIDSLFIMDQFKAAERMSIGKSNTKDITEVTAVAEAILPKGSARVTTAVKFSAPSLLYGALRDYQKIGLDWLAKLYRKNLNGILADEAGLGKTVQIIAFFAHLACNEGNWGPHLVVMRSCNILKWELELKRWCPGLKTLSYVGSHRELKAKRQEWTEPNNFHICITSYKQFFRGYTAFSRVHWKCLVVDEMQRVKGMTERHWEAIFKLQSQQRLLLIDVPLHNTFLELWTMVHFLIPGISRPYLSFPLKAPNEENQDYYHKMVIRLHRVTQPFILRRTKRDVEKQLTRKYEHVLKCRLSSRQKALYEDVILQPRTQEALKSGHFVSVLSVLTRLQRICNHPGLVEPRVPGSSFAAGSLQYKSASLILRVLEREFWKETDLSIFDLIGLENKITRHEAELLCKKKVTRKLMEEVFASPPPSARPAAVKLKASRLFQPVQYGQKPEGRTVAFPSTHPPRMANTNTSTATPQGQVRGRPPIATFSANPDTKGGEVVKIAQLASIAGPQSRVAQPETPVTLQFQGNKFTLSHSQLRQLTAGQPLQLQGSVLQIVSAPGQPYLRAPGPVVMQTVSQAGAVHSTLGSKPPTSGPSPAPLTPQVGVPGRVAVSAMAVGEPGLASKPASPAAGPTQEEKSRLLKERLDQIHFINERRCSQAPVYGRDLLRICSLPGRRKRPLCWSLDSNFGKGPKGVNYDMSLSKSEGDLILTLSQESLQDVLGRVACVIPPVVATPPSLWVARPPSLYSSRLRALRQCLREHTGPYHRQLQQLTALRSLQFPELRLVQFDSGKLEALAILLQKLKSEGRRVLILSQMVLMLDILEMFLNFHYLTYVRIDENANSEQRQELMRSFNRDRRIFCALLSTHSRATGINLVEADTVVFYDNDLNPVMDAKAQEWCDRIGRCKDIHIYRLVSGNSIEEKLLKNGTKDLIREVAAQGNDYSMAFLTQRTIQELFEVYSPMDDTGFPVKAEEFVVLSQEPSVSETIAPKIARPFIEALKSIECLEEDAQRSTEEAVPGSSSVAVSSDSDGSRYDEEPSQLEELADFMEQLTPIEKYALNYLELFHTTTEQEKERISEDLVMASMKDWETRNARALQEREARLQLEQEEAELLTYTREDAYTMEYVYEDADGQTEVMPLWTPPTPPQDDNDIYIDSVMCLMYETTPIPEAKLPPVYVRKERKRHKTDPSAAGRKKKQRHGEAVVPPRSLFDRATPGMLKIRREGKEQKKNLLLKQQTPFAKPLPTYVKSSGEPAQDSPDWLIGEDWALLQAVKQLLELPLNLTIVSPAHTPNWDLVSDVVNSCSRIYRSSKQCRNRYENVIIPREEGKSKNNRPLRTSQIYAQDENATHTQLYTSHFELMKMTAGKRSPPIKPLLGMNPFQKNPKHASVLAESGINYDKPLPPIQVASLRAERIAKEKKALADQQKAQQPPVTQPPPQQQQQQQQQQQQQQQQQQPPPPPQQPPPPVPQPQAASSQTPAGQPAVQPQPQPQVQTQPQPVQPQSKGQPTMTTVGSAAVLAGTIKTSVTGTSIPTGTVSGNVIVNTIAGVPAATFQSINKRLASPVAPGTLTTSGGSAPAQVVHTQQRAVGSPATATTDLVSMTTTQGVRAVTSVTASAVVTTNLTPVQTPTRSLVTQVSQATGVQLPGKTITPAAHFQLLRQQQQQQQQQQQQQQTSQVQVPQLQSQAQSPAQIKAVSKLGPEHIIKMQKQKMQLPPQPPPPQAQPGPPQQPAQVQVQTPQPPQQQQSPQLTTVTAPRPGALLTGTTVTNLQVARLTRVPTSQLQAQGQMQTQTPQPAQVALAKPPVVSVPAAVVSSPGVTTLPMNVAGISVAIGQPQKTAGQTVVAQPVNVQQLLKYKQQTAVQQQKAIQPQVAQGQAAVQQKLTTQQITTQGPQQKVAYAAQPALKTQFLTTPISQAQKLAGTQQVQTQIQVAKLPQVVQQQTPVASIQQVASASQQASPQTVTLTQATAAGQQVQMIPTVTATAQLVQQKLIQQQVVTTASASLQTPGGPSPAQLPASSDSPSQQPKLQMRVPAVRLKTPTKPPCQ
# UniProt Q8R3B7: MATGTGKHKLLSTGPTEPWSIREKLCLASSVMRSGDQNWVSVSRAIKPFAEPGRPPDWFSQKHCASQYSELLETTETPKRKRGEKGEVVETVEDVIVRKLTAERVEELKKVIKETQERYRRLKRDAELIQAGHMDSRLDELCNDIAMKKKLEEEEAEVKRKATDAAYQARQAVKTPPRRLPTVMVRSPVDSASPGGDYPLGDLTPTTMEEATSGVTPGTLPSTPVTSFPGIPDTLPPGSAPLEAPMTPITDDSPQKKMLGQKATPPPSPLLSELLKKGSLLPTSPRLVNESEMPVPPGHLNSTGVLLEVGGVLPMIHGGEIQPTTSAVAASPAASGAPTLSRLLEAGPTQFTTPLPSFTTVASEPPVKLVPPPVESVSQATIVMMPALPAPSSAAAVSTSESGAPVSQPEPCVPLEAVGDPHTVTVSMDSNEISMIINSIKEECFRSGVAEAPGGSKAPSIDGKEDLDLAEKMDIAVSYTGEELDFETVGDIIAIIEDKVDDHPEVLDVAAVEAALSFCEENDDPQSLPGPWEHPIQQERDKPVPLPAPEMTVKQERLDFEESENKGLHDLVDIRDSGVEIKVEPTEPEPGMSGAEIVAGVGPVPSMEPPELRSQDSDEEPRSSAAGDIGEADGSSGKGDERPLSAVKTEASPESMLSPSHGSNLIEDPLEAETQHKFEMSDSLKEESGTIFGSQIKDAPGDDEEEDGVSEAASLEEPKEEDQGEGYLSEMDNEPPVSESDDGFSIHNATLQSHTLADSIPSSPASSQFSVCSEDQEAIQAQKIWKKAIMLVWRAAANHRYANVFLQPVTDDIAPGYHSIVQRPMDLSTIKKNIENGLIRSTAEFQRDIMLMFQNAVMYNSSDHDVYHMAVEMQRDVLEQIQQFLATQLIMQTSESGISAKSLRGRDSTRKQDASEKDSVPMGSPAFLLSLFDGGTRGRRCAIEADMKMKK
# Read-outs that look alike come from different tables or passages of the source. Results are given in words; binding and its absence hold for the method and conditions named. Binding seen in cells or lysates may run through a third protein. A yes stands for co-enrichment or nearness to the bait. Other partners may have been found. For some assays here: A no says only that the protein was not detected with the bait.
# T1: BioID-Rap1-I312R (mouse) (UniProt Q91VL8)
# T1 sequence: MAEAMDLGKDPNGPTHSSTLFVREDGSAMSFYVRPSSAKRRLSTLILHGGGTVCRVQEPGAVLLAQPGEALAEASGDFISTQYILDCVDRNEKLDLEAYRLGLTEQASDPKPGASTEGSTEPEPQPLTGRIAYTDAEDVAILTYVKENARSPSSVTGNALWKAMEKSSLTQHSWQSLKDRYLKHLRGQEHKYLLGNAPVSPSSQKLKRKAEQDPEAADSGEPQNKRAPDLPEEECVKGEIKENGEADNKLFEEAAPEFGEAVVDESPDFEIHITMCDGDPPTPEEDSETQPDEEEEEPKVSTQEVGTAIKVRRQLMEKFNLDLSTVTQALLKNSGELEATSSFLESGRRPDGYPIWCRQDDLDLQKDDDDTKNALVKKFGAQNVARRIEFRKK
# Experiments:
# Assay in all cases: proximity labelling
# BioID-Rap1-I312R (mouse) [1] = target: T1, BioID-Rap1-I312R (mouse)
# BioID-Rap1-WT (mouse) [2] = target: BioID-Rap1-WT (mouse) (UniProt Q91VL8)
# BioID-Rap1-WT (mouse) [3] = target: BioID-Rap1-WT (mouse) (UniProt Q91VL8); remark: listed apart in the source
# BioID-Rap1-I312R (mouse) [4] = target: T1, BioID-Rap1-I312R (mouse); remark: listed apart in the source
binding (BioID-Rap1-I312R (mouse) [1]),binding (BioID-Rap1-WT (mouse) [2]),binding (BioID-Rap1-WT (mouse) [3]),binding (BioID-Rap1-I312R (mouse) [4]),Molecule
binds,,,,DMAP1 (from UniProt Q9JI44 1-468)
binds,,,,EPC1 (from UniProt Q8C9X6 1-813)
binds,,,,EPC2 (from UniProt Q8C0I4 1-808)
no binding,binds,binds,no binding,TRF2 (from UniProt O35144 1-541)
binds,,,,p400 (from UniProt Q8CHI8 1-3072)
binds,,,,BRD8 (from UniProt Q8R3B7 1-951)
no binding,binds,,,"TIN2 (protein, UniProt Q9QXG9 1-341) MAPPPGVGPASLRFAAAASWLVVRRRRVEHFPKVVEFLQSLRAAAPGLVCYRHHERLCMSLKAKVVVELILQARPWDQVLNALKHHFPAESRTTKEDRKLLEARENFCLLVKHLSEDPPSSLQELEQDYGESFLVAMEKLLFEYLCQLEKALPPVRAQELQDALSWSQPGSFITSSVALHQYGMDMGWTFPESSTSGSGNLIEPMEESPHQQTRPAFHSPLPKAKLGPHQPASLEHPEHLAGHRFNLAPLGKRKSRSHWTSAKACHKERPTVMLLPFRNMGLPAQDLSNPKSREEPGAASAASVGTEPVCTEEAKTPSRPLGKRALEETPPDSPAASRRTV"
